In publication PMC8430998:
These are yes or no findings as the source states them, for the method shown. In cells and extracts the contact can be indirect. Some binding calls cover weakened binding; strength is not graded here. Tags and fused reporters may be left off the sequences shown.

Amino acid sequences for entries named in this document (tags omitted). A change or cut given only in a name is not applied to a line headed by its entry. Chains listed by the source or under a name are the forms on record and can include a tag or linker.
AR-V7 (missing the ligand binding domain) (P10275-3, form named): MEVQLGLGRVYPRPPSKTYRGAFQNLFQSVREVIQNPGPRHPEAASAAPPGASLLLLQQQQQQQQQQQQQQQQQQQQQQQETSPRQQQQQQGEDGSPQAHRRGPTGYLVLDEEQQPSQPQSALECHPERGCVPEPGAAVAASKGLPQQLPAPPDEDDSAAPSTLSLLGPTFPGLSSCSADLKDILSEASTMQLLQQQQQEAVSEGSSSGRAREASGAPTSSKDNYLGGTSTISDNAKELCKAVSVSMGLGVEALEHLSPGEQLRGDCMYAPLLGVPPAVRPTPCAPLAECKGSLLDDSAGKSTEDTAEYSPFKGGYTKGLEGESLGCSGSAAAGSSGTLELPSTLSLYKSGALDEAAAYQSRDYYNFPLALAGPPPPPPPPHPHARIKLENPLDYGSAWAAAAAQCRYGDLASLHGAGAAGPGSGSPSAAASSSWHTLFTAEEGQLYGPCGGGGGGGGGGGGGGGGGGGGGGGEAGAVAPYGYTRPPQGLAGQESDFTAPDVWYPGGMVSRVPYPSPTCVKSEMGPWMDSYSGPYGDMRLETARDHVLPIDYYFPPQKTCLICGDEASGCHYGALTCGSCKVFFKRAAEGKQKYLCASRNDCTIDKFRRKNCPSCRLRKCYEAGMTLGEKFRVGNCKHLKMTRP

Target: T1, CSHQ-NRDP1-FLAG (UniProt Q9H4P4)
T1 sequence: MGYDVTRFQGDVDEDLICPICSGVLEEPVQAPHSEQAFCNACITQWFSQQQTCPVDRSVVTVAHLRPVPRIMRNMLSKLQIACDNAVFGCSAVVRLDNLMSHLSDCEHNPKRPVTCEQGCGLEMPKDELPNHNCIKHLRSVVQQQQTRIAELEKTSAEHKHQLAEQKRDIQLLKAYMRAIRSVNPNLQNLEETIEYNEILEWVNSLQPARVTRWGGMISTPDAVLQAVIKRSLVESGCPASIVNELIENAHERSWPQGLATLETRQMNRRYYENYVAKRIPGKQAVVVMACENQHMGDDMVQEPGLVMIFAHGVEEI
Assay: co-IP; cells (LNCaP by the text, PC-3 by the legend) co-transfected with AR constructs and FLAG-tagged NRDP1-CSHQ (3 μg per 100 mm dish, 72 h); FLAG immunoprecipitation, western blot for AR

- binding: binds
Substance: AR-V7 (missing the ligand binding domain) (from UniProt P10275-3 1-644) (receptor)
